# Measurements taken from article PMC11050548.
# The chains behind the UniProt entries cited, without tags or fusion partners.
# UniProt Q676U5: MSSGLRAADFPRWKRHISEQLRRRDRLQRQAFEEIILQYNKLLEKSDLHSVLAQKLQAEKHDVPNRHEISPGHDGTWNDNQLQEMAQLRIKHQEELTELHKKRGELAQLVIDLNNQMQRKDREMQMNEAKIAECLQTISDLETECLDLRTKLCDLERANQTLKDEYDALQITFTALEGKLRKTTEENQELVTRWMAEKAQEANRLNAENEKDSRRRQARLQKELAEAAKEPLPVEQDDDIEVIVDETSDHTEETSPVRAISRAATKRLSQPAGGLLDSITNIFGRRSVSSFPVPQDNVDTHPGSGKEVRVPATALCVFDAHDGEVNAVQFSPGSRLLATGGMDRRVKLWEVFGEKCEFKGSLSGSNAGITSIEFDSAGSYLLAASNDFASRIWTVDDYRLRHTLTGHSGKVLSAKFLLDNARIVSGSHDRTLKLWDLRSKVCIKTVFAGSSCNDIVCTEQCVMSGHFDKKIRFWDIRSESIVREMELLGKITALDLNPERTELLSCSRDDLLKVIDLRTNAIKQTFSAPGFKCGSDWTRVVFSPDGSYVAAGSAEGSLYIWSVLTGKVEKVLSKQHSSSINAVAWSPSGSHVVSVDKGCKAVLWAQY
# UniProt Q9Y5K8: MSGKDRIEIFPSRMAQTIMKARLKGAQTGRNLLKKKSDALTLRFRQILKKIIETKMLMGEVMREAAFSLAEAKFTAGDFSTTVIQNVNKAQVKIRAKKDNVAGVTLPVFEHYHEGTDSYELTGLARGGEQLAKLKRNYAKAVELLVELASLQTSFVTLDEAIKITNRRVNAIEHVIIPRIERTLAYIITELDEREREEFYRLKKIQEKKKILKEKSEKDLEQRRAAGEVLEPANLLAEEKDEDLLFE
# UniProt Q8TDY2: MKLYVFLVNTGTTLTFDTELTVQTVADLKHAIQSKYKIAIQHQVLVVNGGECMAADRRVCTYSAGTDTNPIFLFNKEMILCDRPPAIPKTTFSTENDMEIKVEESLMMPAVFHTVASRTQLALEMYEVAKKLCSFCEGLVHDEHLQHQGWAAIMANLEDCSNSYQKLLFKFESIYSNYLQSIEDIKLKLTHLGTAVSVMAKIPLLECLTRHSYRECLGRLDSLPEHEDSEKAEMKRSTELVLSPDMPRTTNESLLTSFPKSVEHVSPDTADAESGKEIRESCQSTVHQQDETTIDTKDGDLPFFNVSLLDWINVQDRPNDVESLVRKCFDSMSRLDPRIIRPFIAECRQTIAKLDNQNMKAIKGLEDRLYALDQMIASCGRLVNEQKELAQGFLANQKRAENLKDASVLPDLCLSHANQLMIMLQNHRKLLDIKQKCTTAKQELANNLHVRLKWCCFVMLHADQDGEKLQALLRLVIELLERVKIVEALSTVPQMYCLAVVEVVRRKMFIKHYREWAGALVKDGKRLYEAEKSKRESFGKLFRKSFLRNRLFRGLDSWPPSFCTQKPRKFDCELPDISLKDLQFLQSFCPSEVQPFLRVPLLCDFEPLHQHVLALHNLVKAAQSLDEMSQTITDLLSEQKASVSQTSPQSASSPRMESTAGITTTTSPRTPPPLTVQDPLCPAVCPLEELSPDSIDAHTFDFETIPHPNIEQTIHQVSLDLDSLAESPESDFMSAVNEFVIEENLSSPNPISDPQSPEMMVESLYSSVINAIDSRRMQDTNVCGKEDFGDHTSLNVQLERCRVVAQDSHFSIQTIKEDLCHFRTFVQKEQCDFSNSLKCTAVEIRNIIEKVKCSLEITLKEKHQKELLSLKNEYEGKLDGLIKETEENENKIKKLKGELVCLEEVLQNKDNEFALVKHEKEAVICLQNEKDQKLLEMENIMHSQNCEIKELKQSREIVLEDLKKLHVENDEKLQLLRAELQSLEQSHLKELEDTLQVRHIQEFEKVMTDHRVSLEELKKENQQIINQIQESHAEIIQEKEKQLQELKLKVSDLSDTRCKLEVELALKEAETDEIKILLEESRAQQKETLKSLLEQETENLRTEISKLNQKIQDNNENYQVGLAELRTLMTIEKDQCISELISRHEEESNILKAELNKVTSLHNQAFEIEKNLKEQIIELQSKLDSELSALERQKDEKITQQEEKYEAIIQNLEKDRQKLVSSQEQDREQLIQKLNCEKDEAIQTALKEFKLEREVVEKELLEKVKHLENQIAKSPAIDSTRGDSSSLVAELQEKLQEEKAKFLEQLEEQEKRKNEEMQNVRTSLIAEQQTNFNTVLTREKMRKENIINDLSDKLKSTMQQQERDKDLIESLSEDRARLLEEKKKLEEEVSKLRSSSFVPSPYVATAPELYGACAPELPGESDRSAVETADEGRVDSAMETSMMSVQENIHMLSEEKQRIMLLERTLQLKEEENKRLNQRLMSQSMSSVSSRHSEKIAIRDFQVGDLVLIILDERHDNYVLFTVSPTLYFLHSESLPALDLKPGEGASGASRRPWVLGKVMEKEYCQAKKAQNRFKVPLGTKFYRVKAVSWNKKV
# These are yes or no findings as the source states them, for the method shown. In cells and extracts the contact can be indirect. Some binding calls cover weakened binding; strength is not graded here.
# Key:
# [1] = target: GFP-ATG16L1 (full-length ATG16L1) (human (cDNA cloned from HEK293)) (UniProt Q676U5); experiment: co-IP; immunoprecipitation with ATG16L1 antibody from cell lysates, blot for FIP200 and ATG16L1; cells with or without 1 uM Torin1 for 1 h (Figure 5C) or after 1 h of starvation (Figure 7I); IP lysis buffer 50 mM Tris-HCl pH 7.4, 1% TritonX-100, 150 mM NaCl, 1 mM EDTA
# [2] = target: ATP6V1D (human (endogenous in HeLa)) (UniProt Q9Y5K8); experiment: co-IP; immunoprecipitation of ATP6V1D from cell lysates, blot for ATG16L1 and ATP6V1D; cells treated with 2 uM Torin1, 10 uM AMDE-1 or 10 uM niclosamide for 6 h (Figure 6I) or 20 uM AMDE-1 for 3 h (Figure 7J); IP lysis buffer 50 mM Tris-HCl pH 7.4, 1% TritonX-100, 150 mM NaCl, 1 mM EDTA
Substance,binding [1],binding [2]
FIP200 (from UniProt Q8TDY2 1-1594),binds,
GFP-ATG16L1 (full-length ATG16L1) (from UniProt Q676U5 1-607),,binds
